According to PubChem BioAssay AID504444 (National Center for Advancing Translational Sciences (NCATS), 2011):
Several values for one entry are separate records, joined by “and”; a condition that tells them apart may be missing. Identical values can stand only once. Hit rate of the full screen: of about 360,000 compounds, about 7,500 (2.1%) were called active. Inconclusive results, whose numbers are uncertain, are shown with a selection of clear calls. Calls follow the shape of the dose curve; as a rule, active = well fitted inhibition curve with a large enough effect; inconclusive = small, poorly fitted or top-dose-only effect, or effect the other way; inactive = flat fitted curve, though single readings scatter. Where the call is inconclusive, the potency comes from a doubtful curve fit.
Potency is read from the fitted curve at half-maximal effect.

Experiment: Nrf2 qHTS screen for inhibitors; also: nearly all actives have a fitted effect of over 60% in size
Settings: A549 ARE-Fluc reporter, luciferase luminescence, 18-24 h; series mostly up to 46 µM
Description: NIH Molecular Libraries Probe Production Network [MLPCN]
NIH Chemical Genomics Center [NCGC]
Assay Provider: Shyam Biswal, Johns Hopkins University
Nrf2 is a transcription factor that maintains cellular redox homoestasis and protects cells from xenobiotics. Nrf2 binds to the antioxidant response element (ARE) to induce gene expression of a broad spectrum of genes that encode for antioxidants. […] Finding a small molecule that act as an inhibitor of Nrf2 function would represent a novel therapeutic target that could lead to improvement in survival of patients undergoing chemo- and/or radio- therapy.
This is the Nrf2 activity measured in the luminescent read.
1. Shibata, T., et al., Genetic Alteration of Keap1 Confers Constitutive Nrf2 Activation and Resistance to Chemotherapy in Gallbladder Cancer. Gastroenterology, 2008.
2. Sjoblom, T., et al., The consensus coding sequences of human breast and colorectal cancers. Science, 2006. 314(5797): p. 268-74.
NCGC Assay Protocol Summary:
A concentration-response assay was performed with A549 ARE_Fluc cells which are suspended in 5% FBS OPTI-MEM. Five uL were dispensed into 1536-well white TC-treated plate using the Kalypsys dispenser to achieve a density of 5000 cells/well in all columns except column 1. The plate is incubated at 37deg C at 5% CO2 for 2 hours before 23 nL of compounds are added with the Kalypsys pin tool equipped with a 1,536-pin array containing 10-nL slotted pins (FP1S10, 0.457-mm diameter, 50.8 mm long; V&P Scientific). The control compounds Budesonide and Staurosporine are both added at a concentration of 2mM and Budesonide is also added as a 1:10 titration, starting at 200uM, to achieve dose-response. After an 18-24 hour incubation at 37deg C at 5% CO2, 5ul of medium is added to column 1. Afterwards 1ul of 5x of CellTiter-Fluor (Promega) is added to every well. The plate is then incubated at 37deg C at 5% CO2 for 30 minutes before they are read on the ViewLux (Perkin Elmer) for a fluorescent read Ex=405(10)/Em=525(10) for a 3 second exposure, 2x binning, and high gain. Then 3 uL of 3x BugLite is dispensed into all wells and the plate is incubated at ambient room temperature for 15 minutes. Afterwards another ViewLux read is performed using the clear filter to get a luminescent read with the settings of 40 second exposure, 2x binning, and high gain. Cytotoxicity is assessed through the first fluorescent read and then biochemical activity against Nrf2 is measured in the luminescent read.
With `COc1ccc(OCC(O)Cn2c(Nc3ccccc3)nc3c2c(=O)n(C)c(=O)n3C)cc1` (stereo not drawn) the Potency was inconclusive: 23.1 µM [falling, single point]. In the case of `Fc1ccc(C(c2nnnn2Cc2cccs2)N2CCN(C3CCCC3)CC2)cc1` (stereo not drawn), the Potency is reported as inconclusive: 29.1 µM [activator, single point]. In the case of `C/C(=N/NC(=O)c1nnn(-c2nonc2N)c1COc1ccccc1)c1ccccc1Cl`, the Potency is reported as inconclusive: 6.51 µM [activator, single point]. For `CCc1ccc2occ(CC(=O)Nc3c(C(=O)Nc4ccc(OC)cc4)oc4ccccc34)c2c1`, the Potency was inconclusive: 25.9 µM [falling, partial curve]. With `CCc1ccc(CNC(=O)CCc2c(C)nn(-c3ccc(N4CCCCC4)nn3)c2C)cc1` the Potency was inconclusive: 29.1 µM [falling, single point]. With `COc1ccc(S(=O)(=O)NC2CC2)cc1-n1cnnn1` the Potency was inconclusive: 16.4 µM [activator, single point]. For `CC(C)CC(C(=O)O)N1C(=O)C2C3CC(C2C1=O)C1C(c2ccccc2)c2sc(=O)[nH]c2SC31` (stereo not drawn), the Potency was inconclusive: 0.164 µM [activator, full curve, poor fit]. For `CC(CNC(=O)Cn1ccc2cc(S(=O)(=O)N3CCCCC3)ccc21)c1ccccc1` (stereo not drawn), the Potency was inconclusive: 29.1 µM [falling, single point]. In the case of `COC(=O)c1cccc(COC(=O)c2ccc(N(C)C)cc2)c1`, the Potency is reported as inconclusive: 11.6 µM [activator, partial curve]. In the case of `Cc1nnc(C)n1/N=C/c1cc(Br)ccc1O`, the Potency is reported as inconclusive: 0.517 µM [falling, partial curve, poor fit]. In the case of `COC(=O)CN1C(=O)S/C(=C/c2cc(C)n(C)c2C)C1=O`, the Potency is reported as “inactive”. In the case of `CCOc1ccc(NC(=O)Cc2coc3ccc(C)cc23)cc1`, the Potency is reported as “inactive”. For `O=C(CN1CCN(c2ccccc2F)CC1)c1ccc2c(c1)OCO2`, the Potency was inconclusive: 29.1 µM [activator, single point]. For `CC(C)[C@H](NC(=O)c1ccccc1Cl)C(=O)Nc1nc(-c2ccccn2)cs1`, the Potency was active: 14.6 µM. In the case of `COc1ccc(-c2cc(C(=O)Nc3c(Cl)cc(Cl)cc3Cl)c3ccccc3n2)cc1OC`, the Potency is reported as “inactive”. For `COc1ccc(NC(=S)Nc2ccc(Oc3ccccc3)cc2)cc1`, the Potency was active: 23.1 µM. For `CC(C)CC(=O)NC(NC(=S)Nc1sc2c(c1C#N)CCCC2)C(Cl)(Cl)Cl` (stereo not drawn), the Potency was inconclusive: 29.1 µM [falling, single point]. In the case of `COc1cccc(CNCCSc2nnnn2C)c1OCc1ccc(Cl)cc1Cl`, the Potency is reported as inconclusive: 18.4 µM [falling, single point]. In the case of `COc1ccccc1CNC(=O)Cn1c(=O)oc2cc(S(=O)(=O)N3CCC(C)CC3)ccc21`, the Potency is reported as inconclusive: 29.1 µM [falling, single point]. With `Nc1c(N(CCO)C(=O)C2CCCC2)c(=O)[nH]c(=O)n1Cc1ccccc1` the Potency was inconclusive: 16.4 µM [activator, partial curve, poor fit]. For `CC1(C)CC(=O)C/C(=N\NC(=O)Cc2ccccc2)C1`, the Potency was inconclusive: 0.103 µM [activator, full curve, poor fit]. In the case of `O=c1c2ccccc2nc(-c2ccccc2)n1Cc1ccc(Cl)cc1`, the Potency is reported as “inactive”. In the case of `O=C(CCl)N(CCc1ccccc1)CCc1ccccc1`, the Potency is reported as “inactive”. For `CCOc1ccc(C(=O)CC(NCc2cccs2)C(=O)O)cc1` (stereo not drawn), the Potency was “inactive”. For `COc1cc(/C=C2\SC(=O)N(c3ccc(Cl)cc3)C2=O)cc([N+](=O)[O-])c1O`, the Potency was inconclusive: 13 µM [falling, partial curve]. For `Cc1sc2ncnc(OCC(=O)NCc3cccs3)c2c1C`, the Potency was inconclusive: 29.1 µM [falling, single point]. For `CCn1c(CNC(=O)c2ccc(OC)cc2)nnc1SCC(=O)Nc1cccc(C)c1C`, the Potency was “inactive”. For `COc1ccc(/C=N/NC(=O)C(=O)/C=C2\NC3(CCCC3)Cc3ccccc32)cc1`, the Potency was “inactive”. For `Brc1ccc(/C=N/Nc2ccccn2)cc1`, the Potency was inconclusive: 23.1 µM [activator, partial curve]. With `CCOc1ncccc1C(=O)Nc1cc(S(=O)(=O)N2CCCCC2)ccc1Cl` the Potency was “inactive”. With `CN1CC2(Cc3c1ccc1ccccc31)C(=O)OC(C)(C)OC2=O` the Potency was inconclusive: 23.1 µM [falling, single point] and inconclusive: 29.1 µM [falling, single point]. In the case of `CSc1nc2sc3c(c2c(=O)n1C)CCCC3`, the Potency is reported as inconclusive: 11.6 µM [activator, partial curve]. With `O=C(Nc1ccno1)Nc1ccc(Cl)cc1Cl` the Potency was inconclusive: 32.6 µM [falling, partial curve, poor fit]. In the case of `Cc1ccc(C(=O)NNC(=O)c2ccc(S(=O)(=O)N3CCCCC3)cc2)cc1`, the Potency is reported as inconclusive: 0.146 µM [falling, full curve]. With `Cc1ccc(NC(=O)CSc2nc3ccc(NC(=O)c4cccs4)cc3s2)c(C)c1` the Potency was “inactive”. In the case of `Cc1ccc(S(=O)(=O)NC2c3cccc4cccc(c34)C2Sc2ncccn2)cc1` (stereo not drawn), the Potency is reported as inconclusive: 29.1 µM [falling, partial curve, poor fit]. With `N#Cc1c(N)c(C(=O)c2ccccc2)n2c1CCCC2` the Potency was inconclusive: 0.82 µM [falling, partial curve, poor fit]. In the case of `CNC(=O)COC(=O)c1[nH]c(C)c(C(C)=O)c1C`, the Potency is reported as “inactive”. For `Cc1ccc(-c2nnn(CC(=O)N(CCN3CCOCC3)C(C(=O)NC(C)(C)C)c3ccc(C)o3)n2)cc1` (stereo not drawn), the Potency was “inactive”. In the case of `O=C(NNC(=O)c1ccccc1F)c1ccc2nc[nH]c2c1`, the Potency is reported as inconclusive: 29.1 µM [activator, single point]. In the case of `CC1CCC(C(C)C)C(OC(=O)C[n+]2cc(-c3ccc(Cl)cc3)n3c2CCCCC3)C1` (stereo not drawn), the Potency is reported as inconclusive: 13 µM [falling, partial curve, poor fit]. With `COCCn1c(SCC(=O)Nc2ccc3c(c2)CCC3)nc2ccccc2c1=O` the Potency was inconclusive: 7.31 µM [falling, full curve, poor fit]. For `NC1=C([N+](=O)[O-])C(c2ccc(F)cc2)C2=C(CCCC2=O)O1` (stereo not drawn), the Potency was inconclusive: 29.1 µM [activator, partial curve, poor fit].
